In PMC4663267, “A Novel C-Terminal Domain of RecJ is Critical for Interaction with HerA in Deinococcus radiodurans”:
The comparison behind a weaker result is the experiment's own reference, which may not be listed here. For part of these data: For at least one entry, the source does not settle the construct or the ends of the probe. For part of these data: At least one verdict rests on a figure or table, not on a statement of the authors.

Columns and labels:
[1] = target: DrRecJ-core (Deinococcus radiodurans) (UniProt D0EM60); assay: EMSA; details: DNA:protein 1:2 to 1:16, much weaker than full length; EMSA: 100 nM DNA, 80 mM NaCl, 20 mM Tris-HCl pH 7.5, 1 mM DTT, 30 C, 10 min, 5% TBE native PAGE; recombinant protein; residues 48-431; protein details: HMT (His6-MBP) tag removed by TEV; label: 5' FAM; single-stranded DNA
[2] = target: DrRecJΔC (Deinococcus radiodurans) (UniProt D0EM60); assay: EMSA; details: EMSA: 100 nM DNA, 80 mM NaCl, 20 mM Tris-HCl pH 7.5, 1 mM DTT, 30 C, 10 min, 5% TBE native PAGE, recombinant protein, residues 1-531, protein details: HMT (His6-MBP) tag removed by TEV, label: 5' FAM, single-stranded DNA

Measured: binding result

AAAAAAAAAA [O1 (10 nt ssDNA)]
binds more weakly: [1] | [2]; DNA:protein 1:2 to 1:16, much weaker than full length | [2]; with DrHerA (hexamer:RecJΔC 8:1), no obvious enhancement
